The record followed here is US8475800B2 (Centre National de la Recherche Scientifique, priority 2001, dated 2013).

This series in a line: general procedure: Fmoc solid-phase peptide synthesis. The settings on record: whole synthesis.

End groups of sequences in plain letters are not given here.

In the case of “SEQ ID NO: 1 in which the serine in position 10 is phosphorylated (RIHMVYSKRSGKPRGYAFIEY; phosphoserine at position 10; listed as Homo sapiens)”, the “purity (crude or final not stated)” value turned out to be 90.2%.
For YVSRYFGSAIRHEPKMKIYRG the value was 96.5%.
